Results reported in the supplement of paper PMC9233669.
Variants at the background level are over-represented here.

How the values were obtained:
[1] = tested on: biotinyl-Val-oxazolone; assay: self-aminoacylation, catalytic enhancement (BVO) (fold over background); higher = more active; k-Seq, kA / k0A0; sequences stand for … in GGGAAUGGAUCCACAUCUACGAAUUC…UUCACUGCAGACUUGACGAAGCUG
Outline: (§1)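 The uncatalyzed rate is the low-activity peak of a bimodal Gaussian fit, and catalytic enhancement is median kA divided by it. The kA values came from pseudo-first-order fits, with 1000 bootstraps, of per-sequence fraction reacted measured by streptavidin capture, triplicate qPCR and Illumina sequencing. Mutagenized RNA pools with a 21-nt variable region (0.43 μM) were reacted with each biotinyl-aminoacyl-oxazolone at 2–1250 μM in 50 μL HEPES/NaCl/KCl/MgCl2/CaCl2 buffer with 5% acetonitrile, pH 6.9–7.0, for 90 minutes at room temperature.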

[2] = tested on: biotinyl-Met-oxazolone; assay: self-aminoacylation, catalytic enhancement (BMO) (fold over background); higher = more active; k-Seq, kA / k0A0; sequences stand for … in GGGAAUGGAUCCACAUCUACGAAUUC…UUCACUGCAGACUUGACGAAGCUG
Outline: as §1

[3] = tested on: biotinyl-Ile-oxazolone; assay: self-aminoacylation, catalytic enhancement (BIO) (fold over background); higher = more active; k-Seq, kA / k0A0; sequences stand for … in GGGAAUGGAUCCACAUCUACGAAUUC…UUCACUGCAGACUUGACGAAGCUG
Outline: as §1

[4] = tested on: biotinyl-Leu-oxazolone; assay: self-aminoacylation, catalytic enhancement (BLO) (fold over background); higher = more active; k-Seq, kA / k0A0; sequences stand for … in GGGAAUGGAUCCACAUCUACGAAUUC…UUCACUGCAGACUUGACGAAGCUG
Outline: as §1

Sequence	self-aminoacylation [1]	self-aminoacylation [2]	self-aminoacylation [3]	self-aminoacylation [4]
AACUUUGCUAAUAGUCGCAAC [Fam3.1 aminoacylation ribozyme variant]	1.77	1.71		
AAGACUGCUAAUAGUCGCAAG [Fam3.1 aminoacylation ribozyme variant]	1.32		1.58	1.12
AAGCAUGCUAAUAGUCGCAAG [Fam3.1 aminoacylation ribozyme variant]	1.93			1.8
AAGCUUGCUAAUAGCCGCAAG [Fam3.1 aminoacylation ribozyme variant]	1.57		1.76	
AAGCUUGUUAAUAGUCGCAAG [Fam3.1 aminoacylation ribozyme variant]	1.74			
AAGUGUGCUAAUAGUCGCCAG [Fam3.1 aminoacylation ribozyme variant]	1.43	1.86	1.83	
AAGUUUGCUAAUAGUCGCCAG [Fam3.1 aminoacylation ribozyme variant]	0.997		1.02	
AAGUUUGCUAGUAGUCCCAAG [Fam3.1 aminoacylation ribozyme variant]	1.14	0.75	1.01	
AAGUUUGCUUAUAGUCGCCAG [Fam3.1 aminoacylation ribozyme variant]	0.955	0.883	1.08	
AAGUUUGUUAAUAGUCGCAGG [Fam3.1 aminoacylation ribozyme variant]	1.55	1.81	1.75	
AAUUUUGAUAAUAGUCGCAAG [Fam3.1 aminoacylation ribozyme variant]	1.39		1.7	
AGGUUUGCCAAUAGUCGCAAG [Fam3.1 aminoacylation ribozyme variant]	1.92			
AUAACCCUGGUCAUCGUGUGA [Fam2.1 aminoacylation ribozyme variant]	1.6		1.54	
AUCCACCUAGGUCAUAGGGUG [Fam2.2 aminoacylation ribozyme variant]	1.88	1.66	1.66	
AUGACACUGGUCAUCGAGUGA [Fam2.1 aminoacylation ribozyme variant]	3.05		3.42	
AUGACCCUGGUCGUCGAGUGA [Fam2.1 aminoacylation ribozyme variant]	0.888		1.01	
AUUAACCUAGGACAUCGGGUG [Fam2.2 aminoacylation ribozyme variant]	2	1.96	1.84	
AUUACACUGGUCAUGGAGUGA [Fam2.1 aminoacylation ribozyme variant]			1.99	
AUUACCCUGGGCAUCGAGUUA [Fam2.1 aminoacylation ribozyme variant]	1.11	0.642	0.909	

Sequence	self-aminoacylation [1]	self-aminoacylation [2]	self-aminoacylation [3]	self-aminoacylation [4]
AUUACCCUGGUCAGCGAGUGG [Fam2.1 aminoacylation ribozyme variant]	1.41		1.84	
AUUACCCUGGUCAUCGAGAAA [Fam2.1 aminoacylation ribozyme variant]	1.53		1.43	
AUUACCCUGGUCAUCGAGGGG [Fam2.1 aminoacylation ribozyme variant]	1.86		1.27	
AUUACCCUGGUCAUCGCGUGA [Fam2.1 aminoacylation ribozyme variant]	9.74		8.09	
AUUACCCUGGUGAGCGAGUGA [Fam2.1 aminoacylation ribozyme variant]	1.82			
AUUAUCCUCGUCAUCGAGUGA [Fam2.1 aminoacylation ribozyme variant]	1.74		1.82	
AUUCAACUAGGACAUCGGGUG [Fam2.2 aminoacylation ribozyme variant]	1.9			
AUUCACAUAGGUCAUCGAGUG [Fam2.2 aminoacylation ribozyme variant]	1.45	1.92	1.56	
AUUCACAUAGGUCAUCUGGUG [Fam2.2 aminoacylation ribozyme variant]	1.96			
AUUCACCGAGGUCAUCGGUUG [Fam2.2 aminoacylation ribozyme variant]	1.77		1.93	
AUUCACCUAGAUCAGCGGGUG [Fam2.2 aminoacylation ribozyme variant]	1.83		1.99	
AUUCACCUAUGUCAUUGGGUG [Fam2.2 aminoacylation ribozyme variant]	1.64		1.69	
AUUCACCUCGGUCAUCGAGUG [Fam2.2 aminoacylation ribozyme variant]	1.87		1.85	
AUUCACCUGGCUCAUCGGGUG [Fam2.2 aminoacylation ribozyme variant]	3.81	1.79	2.18	
AUUCACUUAGAUCAUCGGGUG [Fam2.2 aminoacylation ribozyme variant]	1.81		1.74	
AUUCUCCUAGGUCAACGGGUG [Fam2.2 aminoacylation ribozyme variant]	3.61	6.57	3.79	
CAGUUUGCUAAUAGUCGCAUG [Fam3.1 aminoacylation ribozyme variant]	1.61	1.91	1.84	
CCACACUGUAAGCAAUCGGUC [Fam1B.1 aminoacylation ribozyme variant]	1.14		1.06	
CCACACUUCAAGAAAGCGGUC [Fam1B.1 aminoacylation ribozyme variant]	0.716		0.839	

Sequence	self-aminoacylation [1]	self-aminoacylation [2]	self-aminoacylation [3]	self-aminoacylation [4]
CCACACUUCAAGCAUUCGAUC [Fam1B.1 aminoacylation ribozyme variant]	0.856		0.664	
CCACUUCAAACAAUCGGUCUC [Fam1A.1 aminoacylation ribozyme variant]	1.71		1.59	
CCACUUCAAACAAUCGGUCUU [Fam1A.1 aminoacylation ribozyme variant]	1.69	1.56	1.5	
CCCCACUUCAAUCAAUCGGUC [Fam1B.1 aminoacylation ribozyme variant]	1.94	1.63	1.82	
CCCGACUUCAAGCAAUCGGUC [Fam1B.1 aminoacylation ribozyme variant]	1.92	1.85	1.63	
CCGCAUUUCAAGCAAUCGGUC [Fam1B.1 aminoacylation ribozyme variant]	2.48		2.36	
CCGCGCUUCAAGCAAUCGGUC [Fam1B.1 aminoacylation ribozyme variant]			2	
CCGCUUCAAACAAUCGGUCUG [Fam1A.1 aminoacylation ribozyme variant]			1.77	
CGACUUCAAGCAAUCGGUCUG [Fam1A.1 aminoacylation ribozyme variant]	1.56	1.58	1.41	
CUACUUCAAACAAUCCUUCUG [Fam1A.1 aminoacylation ribozyme variant]	0.665		0.603	
CUACUUCAAACAAUCUGGCUG [Fam1A.1 aminoacylation ribozyme variant]	0.963	0.844	0.963	
CUACUUGAAACAAUCUGUCUG [Fam1A.1 aminoacylation ribozyme variant]	0.657		0.655	
CUAGUUCAAACAAUGGGUCUG [Fam1A.1 aminoacylation ribozyme variant]			1.14	
CUUACCCUGGUCAUCGAGUGC [Fam2.1 aminoacylation ribozyme variant]	1.84		1.54	
CUUACCUUGGUCAUCGAGUGA [Fam2.1 aminoacylation ribozyme variant]			1.99	
CUUAGCCUGGUCAUCGAGUGA [Fam2.1 aminoacylation ribozyme variant]	1.95		1.94	
GUACUUCAAACAAUCGGUCGG [Fam1A.1 aminoacylation ribozyme variant]	1.66	1.81	1.98	
GUACUUCAAUCAAUCGGUCUG [Fam1A.1 aminoacylation ribozyme variant]	1.64	1.43	1.7	
UUUCACCUAGUUCAUCGGGUG [Fam2.2 aminoacylation ribozyme variant]	3.09	2.6	2.44	
